# Measurements as given in publication PMC12646663.
# The chains behind the UniProt entries cited, without tags or fusion partners.
# UniProt Q61466: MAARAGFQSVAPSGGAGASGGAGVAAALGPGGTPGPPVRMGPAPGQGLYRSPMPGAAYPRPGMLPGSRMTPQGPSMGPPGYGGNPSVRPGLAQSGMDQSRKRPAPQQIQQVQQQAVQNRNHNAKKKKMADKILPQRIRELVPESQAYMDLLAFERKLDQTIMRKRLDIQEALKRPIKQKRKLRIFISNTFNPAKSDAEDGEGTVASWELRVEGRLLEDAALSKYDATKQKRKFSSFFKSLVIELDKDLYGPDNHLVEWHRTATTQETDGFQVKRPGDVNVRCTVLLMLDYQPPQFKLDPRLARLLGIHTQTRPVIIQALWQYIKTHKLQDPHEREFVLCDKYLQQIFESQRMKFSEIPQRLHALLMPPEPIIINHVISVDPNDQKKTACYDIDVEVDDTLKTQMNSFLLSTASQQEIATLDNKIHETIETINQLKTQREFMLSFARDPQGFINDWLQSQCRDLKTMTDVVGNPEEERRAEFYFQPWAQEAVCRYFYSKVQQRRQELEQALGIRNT
# UniProt P97496: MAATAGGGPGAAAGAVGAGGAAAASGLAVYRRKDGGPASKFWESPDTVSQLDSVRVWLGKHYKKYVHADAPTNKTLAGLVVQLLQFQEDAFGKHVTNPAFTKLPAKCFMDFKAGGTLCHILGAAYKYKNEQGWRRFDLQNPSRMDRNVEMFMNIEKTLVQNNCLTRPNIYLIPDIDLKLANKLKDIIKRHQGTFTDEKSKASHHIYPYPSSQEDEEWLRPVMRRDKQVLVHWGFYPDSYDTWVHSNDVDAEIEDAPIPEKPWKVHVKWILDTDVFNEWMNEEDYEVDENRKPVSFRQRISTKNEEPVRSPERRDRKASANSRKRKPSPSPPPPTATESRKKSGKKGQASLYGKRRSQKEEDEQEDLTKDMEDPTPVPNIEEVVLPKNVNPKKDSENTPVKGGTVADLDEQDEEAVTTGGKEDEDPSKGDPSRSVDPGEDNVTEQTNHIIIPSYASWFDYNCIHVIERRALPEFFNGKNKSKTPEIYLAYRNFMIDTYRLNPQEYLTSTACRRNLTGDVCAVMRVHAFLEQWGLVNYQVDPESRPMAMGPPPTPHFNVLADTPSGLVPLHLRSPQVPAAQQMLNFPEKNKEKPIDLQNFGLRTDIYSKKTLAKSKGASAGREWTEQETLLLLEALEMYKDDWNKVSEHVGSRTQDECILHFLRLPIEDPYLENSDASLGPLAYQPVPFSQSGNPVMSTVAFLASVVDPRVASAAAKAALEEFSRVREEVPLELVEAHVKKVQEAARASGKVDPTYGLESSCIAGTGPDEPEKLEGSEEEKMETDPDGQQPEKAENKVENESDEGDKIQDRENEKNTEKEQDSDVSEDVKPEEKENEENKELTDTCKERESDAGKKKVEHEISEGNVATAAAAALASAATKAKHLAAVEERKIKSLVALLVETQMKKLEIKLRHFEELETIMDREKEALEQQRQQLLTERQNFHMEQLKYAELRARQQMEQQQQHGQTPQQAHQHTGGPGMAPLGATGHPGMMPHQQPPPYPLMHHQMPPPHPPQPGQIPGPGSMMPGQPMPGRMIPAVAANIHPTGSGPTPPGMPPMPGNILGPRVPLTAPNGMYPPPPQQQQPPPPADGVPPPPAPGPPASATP
# UniProt P70288: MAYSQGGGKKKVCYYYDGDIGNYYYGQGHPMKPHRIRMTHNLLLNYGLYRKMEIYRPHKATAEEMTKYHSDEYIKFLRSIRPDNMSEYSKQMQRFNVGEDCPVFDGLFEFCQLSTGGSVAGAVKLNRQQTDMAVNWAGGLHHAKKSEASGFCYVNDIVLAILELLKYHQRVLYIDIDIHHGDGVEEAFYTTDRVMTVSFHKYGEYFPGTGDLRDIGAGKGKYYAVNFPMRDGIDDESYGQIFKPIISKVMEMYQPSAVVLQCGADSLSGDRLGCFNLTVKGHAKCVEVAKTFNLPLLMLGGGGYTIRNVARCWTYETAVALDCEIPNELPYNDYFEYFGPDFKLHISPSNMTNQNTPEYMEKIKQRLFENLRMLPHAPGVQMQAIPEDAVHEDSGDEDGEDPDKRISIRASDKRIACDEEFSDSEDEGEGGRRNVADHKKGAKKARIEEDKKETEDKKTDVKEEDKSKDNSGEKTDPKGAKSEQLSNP
# No constants are given. Whether binding was seen depends on the method and setting. Binding seen in cells or lysates may run through a third protein. Here binding means that the protein was enriched with, or labelled near, the bait; the list need not be complete.
# Molecular target: BAF60a-BirA* fusion protein (UniProt Q61466)
# Experiment: proximity labelling; BioID-based proteomics in Min6 cells expressing BAF60a-BirA* fusion protein; mass spectrometry
row,binding,Substance
1,binds,BAF155 (from UniProt P97496 1-1104)
2,binds,Hdac2 (from UniProt P70288 1-488)
